Results are given in words; binding and its absence hold for the method and conditions named. A result given as binding can be weak or reduced; the word gives no strength.
Target: T1, Lactobacillus plantarum LM3 EnoA1 alfa-enolase (phosphopyruvate hydratase) (Lactobacillus plantarum LM3 (endogenous in LM3 cells)) (UniProt Q88YH3)
T1 sequence: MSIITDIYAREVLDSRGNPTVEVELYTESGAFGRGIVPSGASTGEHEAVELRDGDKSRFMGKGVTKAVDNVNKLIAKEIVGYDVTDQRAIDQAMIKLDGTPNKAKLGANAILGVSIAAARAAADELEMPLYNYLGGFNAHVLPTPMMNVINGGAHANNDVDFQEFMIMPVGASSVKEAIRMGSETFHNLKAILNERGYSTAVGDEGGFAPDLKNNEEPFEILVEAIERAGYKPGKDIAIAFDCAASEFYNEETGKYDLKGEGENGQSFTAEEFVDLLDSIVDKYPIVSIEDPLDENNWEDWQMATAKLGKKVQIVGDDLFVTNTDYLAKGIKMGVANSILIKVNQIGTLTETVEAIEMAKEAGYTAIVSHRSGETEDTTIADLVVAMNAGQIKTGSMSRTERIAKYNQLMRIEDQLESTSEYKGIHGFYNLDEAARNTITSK
Assay: far-Western, overlay or dot blot; L. plantarum surface proteins (10 micrograms) separated by SDS-PAGE (10%), blotted onto PVDF, overlaid with 0.2 micrograms/ml human fibronectin overnight at 4°C in NN' buffer; bound fibronectin detected with primary antibody for fibronectin, HRP secondary antibody and ECL; extracts of LM3 and of the enoA1 null strain LM3-CC1; only the binder purified

With human fibronectin the binding was “binds”.

— paper PMC2654425
